Among all 320,000 compounds or so, about 2,100 (0.66%) were called active. The inconclusive results got no clear call from the source; some entries with a clear call stand among them for comparison. Calls come from the whole dose curve; as a rule, active = well fitted inhibition curve with a large enough effect in the signal ratio, with a control signal flat (not every such curve was filed as active); inconclusive = small, poorly fitted or top-dose-only effect, or effect the other way, or a change in a side signal; inactive = flat fitted curve, though single readings scatter; the % refers to the signal ratio. Where the call is inconclusive, the potency comes from a doubtful curve fit.
Assay: qHTS Assay for Lipid Storage Modulators in Drosophila S3 Cells
Details: BODIPY lipid droplet fluorescence, 18-24 h, cells fed with added oleic acid; lipid storage change, negative = inhibition: at 46.1 µM (top of the series) unless noted
Procedure, shortened: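 Drosophila S3 cells loaded with oleic acid (400 uM, as added) and compounds at several concentrations; lipid droplets imaged by 488-nm laser-scanning cytometry, 500–530 nm intensity and object ratio to cell channel. Percent activity normalized to 20 uM Triacsin C.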
% is set by controls: 0 for no effect and ±100 for the full control effect; potency is the fitted concentration of half-maximal effect.

| Compound | lipid storage change, negative = inhibition | Potency |
| --- | --- | --- |
| CCOC(=O)Cc1csc(NC(NC(=O)CC)(C(F)(F)F)C(F)(F)F)n1 | inconclusive: 3.61% |  |
| O=S(=O)(c1ccc(S(=O)(=O)N2CCCC2)cc1)N1CCCCC1 |  | inconclusive: 0.116 µM [falling, full curve, poor fit] |
| C=CCN1C(=O)C(O)(CC(=O)c2ccc(Cl)cc2)c2ccccc21 (stereo unspecified) | inconclusive: -11% [at 9.22 µM] |  |
| COc1cc(C(=O)Nc2ccc3c(c2)ncn3C(C)(C)C)cc(OC)c1OC | inconclusive: 69.6% |  |
| Cc1cc(N2CCCN(C)CC2)nc2cc(Cl)ccc12 |  | inconclusive: 1.16 µM [activator, partial curve] |
| NC(=O)CC(NC(=O)Cc1ccc(Cl)cc1)c1ccc(NC2CCCCCC2)c([N+](=O)[O-])c1 (stereo unspecified) |  | inconclusive: 29.1 µM [falling, single point] |
| Cc1ccccc1NC(=O)CNC(=O)c1ccc(C(F)(F)F)cc1 | inconclusive: 3.18% |  |
| Cc1cccc(NC(=O)CN(CC2CCCO2)C(=O)c2oc3ccc(F)cc3c2C)c1C (stereo unspecified) |  | inconclusive: 20.6 µM [falling, single point] |
| CCCS(=O)(=O)N1CCn2c(nc3ccccc32)C1 | inconclusive: -34.3% |  |
| CS(=O)(=O)N(CC(=O)Nc1ccc(S(=O)(=O)N2CCCC2)cc1)c1cccc(F)c1 | inconclusive: -21.1% |  |
| CCCC1(c2ccccc2)NC(=O)N(CC(=O)Nc2sc(-c3ccccc3)cc2C(=O)OCC)C1=O (stereo unspecified) |  | inconclusive: 18.4 µM [falling, single point] |
| Cc1cc(C)cc(OCC(=O)Nc2nc(-c3ccccn3)cs2)c1 | inconclusive |  |
| Cc1cc(C)nc(SCc2ccc(C(=O)N/N=C/c3ccc(C(=O)O)cc3)cc2)n1 | inconclusive: -47% |  |
| Cc1ccc2[nH]c(=O)c(CN(CC3CCCO3)C(=O)c3ccncc3)cc2c1 (stereo unspecified) |  | inconclusive: 2.59 µM [rising, single point] |
| Cc1cc(OCC(=O)N2CCN(c3ccccn3)CC2)c(C)cc1Br |  | inconclusive: 1.3 µM [activator, partial curve] |
| O=C(C(=O)N1CCCC1CO)N1CCCC1CO (stereo unspecified) | inconclusive: -1.06% |  |
| COc1ccccc1CNC(=O)Cn1cnnn1 |  | inconclusive: 2.06 µM [falling, single point] |
| O=C(NCCC1CCCCN1S(=O)(=O)c1ccccc1)C(=O)NCC1CCCO1 (stereo unspecified) | inconclusive: 3.12% |  |
| COc1ccc(N(C(=O)c2ccncc2)S(=O)(=O)c2cccs2)cc1 | inconclusive: 42.2% |  |
| COC(=O)c1[nH]c2ccc(F)cc2c1NS(=O)(=O)c1ccc(F)c(C)c1 |  | inconclusive: 18.4 µM [activator, partial curve] |
| O=C(CCNC(=O)c1ccc([N+](=O)[O-])cc1)N/N=C/c1ccc(F)cc1 | inconclusive: -10.8% |  |
| Cc1cc(C)c(S(=O)(=O)c2ccc(F)cc2C)c(=O)[nH]1 | inconclusive: -36.9% |  |
| N=c1c2c3c(sc2nc2n1CCC2)CCCC3 | inconclusive: 35% |  |
| CN1CCN(C(=O)CCn2nc(-c3ccccc3)c3ccccc3c2=O)CC1 |  | inconclusive: 29.1 µM [activator, single point] |
| CCN1CCN(C(=O)CCN2C(=O)c3ccccc3C2=O)CC1 | inconclusive: 12.7% |  |
| CCCCn1c(N)c(N(CCOC)C(=O)CN(C)S(=O)(=O)c2ccc(C)cc2)c(=O)[nH]c1=O | inconclusive: 32.1% |  |

| Compound | lipid storage change, negative = inhibition | Potency |
| --- | --- | --- |
| C/C(CCc1ccc2c(c1)OCO2)=N\NC(=O)c1ccccc1Cl |  | inconclusive: 1.46 µM [activator, partial curve, poor fit] |
| CCOC(=O)CCNC(=O)N1CCCC(C(=O)c2cc(C)c(OC)c(C)c2)C1 (stereo unspecified) | inconclusive: -76.4% |  |
| O=C(N/N=C/c1ccc(-c2ccc([N+](=O)[O-])cc2)o1)[C@H]1C[C@@H]1c1ccccc1 | inconclusive: 3.56% |  |
| CCn1cc(C(=O)NCc2ccco2)c(=O)c2cc(S(=O)(=O)N3CCc4ccccc4C3)ccc21 |  | inconclusive: 16.4 µM [falling, partial curve, poor fit] |
| CCOC(=O)c1c(C)[nH]c(C)c1S(=O)(=O)N1CCOCC1 | inconclusive: 244% |  |
| CCN(CC)C(CNC(=O)CSc1nnnn1-c1cccc(F)c1)c1ccco1 (stereo unspecified) | inconclusive: 13% |  |
| Brc1ccc2c(c1)OCCOCCOc1cc(Br)ccc1OCCOCCOCCO2 | inconclusive: -55.4% |  |
| CCOC(=O)C1CCN(C(=O)c2ccc(N(C)S(=O)(=O)c3ccc(OC)cc3)cc2)CC1 | inactive: -25.7% |  |
| Cc1c(NC(=S)Nc2ccccc2)c(=O)n(-c2ccccc2)n1C | inconclusive: -0.924% |  |
| CCN(CC)c1ccc(-n2c(C)cc(C=O)c2C)cc1 | inconclusive: -47.7% |  |
| COc1ccc(C2CC(c3cccs3)=NN2C(=O)CSC2=NCCS2)cc1 (stereo unspecified) |  | inconclusive: 29.1 µM [falling, single point] |
| O=C(N/N=C/c1ccc[nH]1)c1ccncc1 | inconclusive: -14.2% |  |
| CCN(CC)C(=O)C(=O)c1cc(C)n(-c2ccc(F)cc2)c1C | inconclusive: 25.1% |  |
| Nc1ccc2nc(-c3cccc(-c4nc5ccc(N)cc5[nH]4)n3)[nH]c2c1 | inconclusive: -23.1% |  |
| O=C(COc1ccc(Br)cc1)NNC(=S)NC(=O)c1ccccc1[N+](=O)[O-] |  | inconclusive: 16.4 µM [falling, single point] |
| O=C(CN1C(=O)NC2(CCCC2)C1=O)OCCOc1ccc(Cl)cc1 | inconclusive: -43.7% |  |
| N#Cc1nc(Cc2ccccc2)oc1N1CCC(Cc2ccccc2)CC1 | inconclusive: 24.7% |  |
| COC(=O)c1c(NC(=O)C2C3C=CC(CC3)C2C(=O)O)sc(C)c1C (stereo unspecified) | inconclusive: 16.6% |  |
| COc1cccc(/C=N/Nc2ncnc3c2ncn3Cc2ccccc2)c1O |  | inconclusive: 8.2 µM [falling, partial curve, poor fit] |
| CCOC(=O)c1nc(Nc2ccc(C(C)=O)cc2)c2ccccc2n1 | inactive: -4.14% |  |
| C[N+]1(CCCCSc2ccc(O)cc2)CCCCC1 |  | active: 4.61 µM |
| Cc1cccc(-n2c(C)cc(/C=N/NC(=O)c3cccc([N+](=O)[O-])c3C)c2C)c1 | inconclusive: 13.5% |  |
| O=C(c1ccc(CS(=O)(=O)c2ccccc2)o1)N1CCN(c2ccccc2)CC1 | inconclusive: 32% |  |
| CCSc1nnc(NC(=O)c2cc(OC)c(OC)c(OC)c2)s1 | inconclusive: -7.58% |  |
| CC(=O)NC1(C2CCCCC2=O)CCCCC1 (stereo unspecified) | inconclusive: -32.4% |  |
| Cc1ccc(NC(=O)c2c(F)cccc2Cl)cc1NS(C)(=O)=O | inactive: -2.17% |  |

Full records as entered above.
CCN(CC)c1ccc(-n2c(C)cc(C=O)c2C)cc1 as listed: lipid storage change, negative = inhibition: inconclusive: -47.7%
CN1CCN(C(=O)CCn2nc(-c3ccccc3)c3ccccc3c2=O)CC1 as listed: Potency: inconclusive: 29.1 µM [activator, single point]
COc1cccc(/C=N/Nc2ncnc3c2ncn3Cc2ccccc2)c1O as listed: Potency: inconclusive: 8.2 µM [falling, partial curve, poor fit]
O=C(CN1C(=O)NC2(CCCC2)C1=O)OCCOc1ccc(Cl)cc1 as listed: lipid storage change, negative = inhibition: inconclusive: -43.7%

(list continues)

| Compound | lipid storage change, negative = inhibition | Potency |
| --- | --- | --- |
| COc1cccc(/C=C2\Oc3cc(OCC(=O)N4Cc5ccccc5C[C@H]4C(=O)O)ccc3C2=O)c1 | inconclusive: 6.26% |  |
| COc1cccc(N2CCN(c3ccc4nnc(CCC(=O)Nc5ccccn5)n4n3)CC2)c1 |  | inconclusive: 29.1 µM [falling, single point] |
| O=C(NNS(=O)(=O)c1ccc(Br)cc1)c1sccc1-n1cccc1 | inconclusive: -28.9% |  |
| Cc1ccc(-c2cn3nc(-c4ccccc4)c(-c4ccccc4)nc3n2)cc1 |  | inconclusive: 1.84 µM [activator, partial curve, poor fit] |
| C=CCNc1sc(C(=O)C(C)(C)C)c(N)c1C#N |  | inconclusive: 6.51 µM [rising, single point] |
| CC1(C)Cc2cccc(OCC(=O)Nc3cc(S(C)(=O)=O)ccc3Cl)c2O1 | inconclusive: -0.275% |  |
| CC(=O)Nc1ccc(/C=N/NC(=O)CNC(=O)c2ccccc2)cc1 | inconclusive: -39% [at 0.369 µM] |  |
| Cc1cc(C(=O)CSc2nnc(-c3ccco3)o2)c(C)n1Cc1ccco1 | inconclusive: 92.6% |  |
| CC(C)(C)C(=O)Nc1ccc2oc(-c3cc(F)c(F)cc3Cl)nc2c1 |  | inconclusive: 3.26 µM [activator, partial curve] |
| COc1ccc(CCN2CC34C=CC(O3)C(C(=O)NCc3ccccc3)C4C2=O)cc1OC (stereo unspecified) | inconclusive: 16.4% |  |
| Cc1cnc(C(=O)NCCc2ccc(Cl)cc2)cn1 |  | inconclusive: 5.8 µM [activator, full curve] |
| COc1ccc(/C=N/NC(=O)C(=O)N2CCCCCC2)cc1[N+](=O)[O-] | inconclusive: -39.6% |  |
| CCCCNS(=O)(=O)c1ccc2nc(-c3cccnc3)cc(C(=O)NC3CC3)c2c1 | inconclusive: 29.3% |  |
| O=C(CC(SCCO)c1ccc2c(c1)OCO2)c1ccco1 (stereo unspecified) |  | inconclusive: 0.517 µM [rising, single point] |
| CC1CC(C)CN(C(=O)COC(=O)CNS(=O)(=O)/C=C/c2ccccc2)C1 (stereo unspecified) |  | inconclusive: 32.6 µM [falling, single point] |
| O=C(NN=C1CCCCC1)c1cc(-c2ccccc2)n[nH]1 | inconclusive: 22.5% |  |
| COc1ccc(-c2csc3nc(-c4cccnc4)nc(N4CCC(C(N)=O)CC4)c23)cc1OC | inconclusive: 3.94% |  |
| Cc1ccccc1CNC(=O)CN1C(=O)c2ccccc2S1(=O)=O | inconclusive: -3.05% |  |
| Clc1ccc(C2Nc3cccc4cccc(c34)N2)cc1 |  | inconclusive: 29.1 µM [activator, single point] |
| O=C(CNCc1ccccc1)Nc1ccc(Cl)cc1 | inconclusive: 15.3% |  |
| CC(=O)Nc1cc(S(=O)(=O)C(F)(F)F)ccc1Cl |  | inconclusive: 8.2 µM [activator, partial curve, poor fit] |
| Cc1ccc2[nH]c3c(c2c1)SC(C)(C)CC3=O | inconclusive: -9.42% |  |
| CCOc1ccccc1OCCN1CCCC1 | inconclusive: 17.1% |  |
| CCN(CC)S(=O)(=O)c1cc(C(=O)O)c(Cl)cc1Cl | inconclusive: -179% |  |

Reference: PubChem BioAssay AID2685 (National Center for Advancing Translational Sciences (NCATS), 2010)
